The target in assay [1] is T1, vesicle-associated membrane protein 8 (human (endogenous in A2780 and OV90)) (UniProt Q9BV40).
T1 sequence: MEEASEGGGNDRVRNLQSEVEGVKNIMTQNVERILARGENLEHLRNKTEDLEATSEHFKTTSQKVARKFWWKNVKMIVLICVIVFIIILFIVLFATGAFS
The assay is described as follows: proximity ligation; Duolink PLA in A2780 and OV90 cells, mouse anti-VAMP8 and rabbit anti-STX17; FASN knockout (siRNA-silenced) group treated with rapamycin.

In assay [2] the target is T2, vesicle-associated membrane protein 8 (human (endogenous in A2780 and OV90)), Q9BV40.
T2 chain: T1 sequence
The assay is described as follows: proximity ligation; Duolink PLA in A2780 and OV90 cells, mouse anti-VAMP8 and rabbit anti-STX17; FASN wild-type group treated with rapamycin. As to conditions: remark: other sources report otherwise.

Assay [3] concerns the target T2, vesicle-associated membrane protein 8 …. Description: co-IP; endogenous proteins in A2780 and OV90 cell lysates (strong RIPA lysis); IP with STX17 antibody or VAMP8 antibody, protein A/G agarose beads, IgG as negative control; cells with or without rapamycin (1 uM, 6 h), FASN normal or silenced. To be noted: remark: other sources report otherwise.
Assay [4] addresses T3, syntaxin 17 (human (endogenous in A2780 and OV90)), P56962.
T3 chain: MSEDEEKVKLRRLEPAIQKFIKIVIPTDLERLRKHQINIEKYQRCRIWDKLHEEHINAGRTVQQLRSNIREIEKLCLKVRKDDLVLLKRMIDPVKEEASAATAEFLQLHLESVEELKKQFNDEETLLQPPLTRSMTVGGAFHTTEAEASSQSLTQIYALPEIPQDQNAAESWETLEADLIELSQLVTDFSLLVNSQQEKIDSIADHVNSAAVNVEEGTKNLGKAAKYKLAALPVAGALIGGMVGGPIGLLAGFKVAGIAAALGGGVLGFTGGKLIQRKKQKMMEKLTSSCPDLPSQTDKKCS
Described as above. To be noted: remark: other sources report otherwise.

Experimental findings from paper PMC10750195 are described below.

Results are given in words; binding and its absence hold for the method and conditions named. Binding seen in cells or lysates may run through a third protein. Some results given as binding are weak or reduced against the parent protein; the word gives no strength.

In the case of syntaxin 17 (from UniProt P56962 1-302), the binding result in assay [1] is listed as “binds weakly”.

B1: syntaxin 17, P56962 1-302 (protein)
chain: T3 chain
Consider B1, for which the binding entry in assay [2] and in assay [3] was “binds” in each case.

B2: vesicle-associated membrane protein 8, Q9BV40 1-100 (protein)
chain: T1 sequence
With B2, in assay [4], the binding result is listed as “binds”.
